# Results deposited as PubChem BioAssay AID1053208 (Peter MacCallum Cancer Centre, 2014)
# Test: 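Synthetic lethal interactions between gene loss and doxorubicin in osteosarcoma cells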 (primary screen)
# Cells: mouse osteosarcoma cells, early-passage culture from an engineered mouse model of fibroblastic bone tumour
# Reagent: siRNA pool against mouse genes, 40 nM
# Duration: about 120 h (48 h before drug, then 72 h with drug)
# Challenge: doxorubicin 100 nM for 72 h, roughly 30-40% inhibitory dose
# Measured: 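Viability read as ATP luminescence after 72 h of 100 nM doxorubicin or none, duplicate wells averaged, scaled to non-targeting siRNA, then expressed as robust z-scores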
# Scale: viability z-score with doxorubicin and doxorubicin viability vs non-targeting: higher = more viable cells under doxorubicin; viability z-score without drug: higher = more viable cells with knock-down alone; z-score of drug to no-drug ratio: higher = less drug sensitisation by knock-down
# Hit rule: 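Called active if knock-down leaves viability unchanged without drug (z within -2 to 2) but lowers it with doxorubicin (z at or under -2)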
# In all, the deposit lists about 17,000 reagents; this is an unselected part. Over the whole deposit, 788 (4.7%) were called active. 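Calls rest on z-score classes alone; an extra cut-off of viability at most 70% of control was not applied to them.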
Gene,PubChem SID,combined z-score class,viability z-score with doxorubicin,viability z-score without drug,z-score of drug to no-drug ratio,doxorubicin viability vs non-targeting,Call
Or52m2 (olfactory receptor family 52 subfamily M member 2),SID152279842,no change with or without drug,-0.11,-0.17,0.11,0.93,inactive
Amd2 (S-adenosylmethionine decarboxylase 2),SID152333862,no change with or without drug,0.22,0.34,0.11,0.96,inactive
5830402J09,SID152282587,no change with or without drug,0.22,-0.17,0.45,0.96,inactive
"Tgds (TDP-glucose 4,6-dehydratase)",SID152292977,no change with or without drug,1.91,0.51,1.69,1.11,inactive
Rgs16 (regulator of G-protein signaling 16),SID152265951,no change with or without drug,0,-1.18,1.01,0.94,inactive
"Actbl2 (actin, beta-like 2)",SID152260975,no change with or without drug,0.79,1.18,0.11,1.01,inactive
Sfr1 (SWI5 dependent recombination repair 1),SID152311128,no change with or without drug,0.22,1.52,-0.67,0.96,inactive
Pdcl (phosducin-like),SID152290473,no change with or without drug,0.56,0.84,0.11,0.99,inactive
Cd74,SID152290337,no change with or without drug,1.57,0.84,1.12,1.08,inactive
Cpq (carboxypeptidase Q),SID152325850,low cell count with doxorubicin only,-3.04,0.17,-3.15,0.67,active
"Phlda1 (pleckstrin homology like domain, family A, member 1)",SID152295146,low cell count with doxorubicin only,-2.7,-1.01,-2.14,0.7,active
6030498E09Rik (RIKEN cDNA 6030498E09 gene),SID152275118,no change with or without drug,0.45,0.34,0.34,0.98,inactive
Mtmr6 (myotubularin related protein 6),SID152299122,no change with or without drug,-1.35,-1.18,-0.56,0.82,inactive
Trabd (TraB domain containing),SID152259115,no change with or without drug,0.11,0.84,-0.34,0.95,inactive
Or4n4b (olfactory receptor family 4 subfamily N member 4B),SID152337138,no change with or without drug,-0.22,1.01,-0.79,0.92,inactive
Ppwd1 (peptidylprolyl isomerase domain and WD repeat containing 1),SID152312655,no change with or without drug,0.79,-0.34,1.24,1.01,inactive
Brd4 (bromodomain containing 4),SID152323932,no change with or without drug,0.45,-0.84,1.24,0.98,inactive
Maz,SID152322340,no change with or without drug,0.9,-0.17,1.24,1.02,inactive
Frmd4a (FERM domain containing 4A),SID152313336,no change with or without drug,-0.34,-0.51,0.11,0.91,inactive
Krt84 (keratin 84),SID152340757,no change with or without drug,-0.9,0.51,-1.12,0.86,inactive
Or7e174 (olfactory receptor family 7 subfamily E member 174),SID152276292,no change with or without drug,0.45,0.17,0.45,0.98,inactive
"Mypop (Myb-related transcription factor, partner of profilin)",SID152305365,no change with or without drug,0,0.51,-0.22,0.94,inactive
Xlr5c (X-linked lymphocyte-regulated 5C),SID152336950,no change with or without drug,0.9,0.51,0.67,1.02,inactive
Cd22 (CD22 antigen),SID152309795,no change with or without drug,1.12,0.84,0.67,1.04,inactive
Plekhf1 (pleckstrin homology and FYVE domain containing 1),SID152301436,no change with or without drug,-0.22,-0.34,0.11,0.92,inactive

Part of the list above, reformatted.
Gene	PubChem SID	combined z-score class	viability z-score with doxorubicin	viability z-score without drug	z-score of drug to no-drug ratio	doxorubicin viability vs non-targeting	Call
Ppwd1 (peptidylprolyl isomerase domain and WD repeat containing 1)	SID152312655	no change with or without drug	0.79	-0.34	1.24	1.01	inactive
Brd4 (bromodomain containing 4)	SID152323932	no change with or without drug	0.45	-0.84	1.24	0.98	inactive
Maz	SID152322340	no change with or without drug	0.9	-0.17	1.24	1.02	inactive
Frmd4a (FERM domain containing 4A)	SID152313336	no change with or without drug	-0.34	-0.51	0.11	0.91	inactive
Krt84 (keratin 84)	SID152340757	no change with or without drug	-0.9	0.51	-1.12	0.86	inactive
Or7e174 (olfactory receptor family 7 subfamily E member 174)	SID152276292	no change with or without drug	0.45	0.17	0.45	0.98	inactive

Additional reagents follow.
Gene,PubChem SID,combined z-score class,viability z-score with doxorubicin,viability z-score without drug,z-score of drug to no-drug ratio,doxorubicin viability vs non-targeting,Call
Xcl1 (chemokine (C motif) ligand 1),SID152289553,no change with or without drug,-1.8,-1.18,-1.01,0.78,inactive
Ppil4 (peptidylprolyl isomerase (cyclophilin)-like 4),SID152263580,no change with or without drug,-0.34,-0.51,0.11,0.91,inactive
Gas2l1 (growth arrest-specific 2 like 1),SID152315504,no change with or without drug,0.67,0.84,0.22,1,inactive
Selenbp1 (selenium binding protein 1),SID152328869,no change with or without drug,-0.79,0.51,-1.01,0.87,inactive
Polr2g (polymerase (RNA) II (DNA directed) polypeptide G),SID152303550,no change with or without drug,1.12,0.34,1.01,1.04,inactive
"Fam216b (family with sequence similarity 216, member B)",SID152274666,no change with or without drug,-0.45,0.17,-0.45,0.9,inactive
FIN14,SID152319342,no change with or without drug,-0.67,0.34,-0.79,0.88,inactive
Rapgef3 (Rap guanine nucleotide exchange factor (GEF) 3),SID152332862,no change with or without drug,0.67,-0.17,0.9,1,inactive
Map3k6 (mitogen-activated protein kinase kinase kinase 6),SID152263175,no change with or without drug,-0.22,0.51,-0.45,0.92,inactive
Bcs1l,SID152278217,no change with or without drug,1.12,0,1.24,1.04,inactive
Gsx2 (GS homeobox 2),SID152279751,no change with or without drug,-1.8,-0.51,-1.46,0.78,inactive
"Itpkb (inositol 1,4,5-trisphosphate 3-kinase B)",SID152264018,no change with or without drug,-1.01,-1.01,-0.22,0.85,inactive
Fbxw13 (F-box and WD-40 domain protein 13),SID152311783,no change with or without drug,-1.12,0.84,-1.57,0.84,inactive
Tab2 (TGF-beta activated kinase 1/MAP3K7 binding protein 2),SID152261646,no change with or without drug,-0.45,-1.52,0.79,0.9,inactive
Alkbh7 (alkB homolog 7),SID152336419,no change with or without drug,-1.46,1.18,-2.14,0.81,inactive
Tmed5 (transmembrane p24 trafficking protein 5),SID152292145,no change with or without drug,1.01,0.34,0.9,1.03,inactive
Kank3 (KN motif and ankyrin repeat domains 3),SID152323732,no change with or without drug,0.34,0.34,0.22,0.97,inactive
"Brk1 (BRICK1, SCAR/WAVE actin-nucleating complex subunit)",SID152297310,no change with or without drug,-1.35,-0.51,-1.01,0.82,inactive
"Phldb1 (pleckstrin homology like domain, family B, member 1)",SID152282318,no change with or without drug,-0.67,1.18,-1.35,0.88,inactive
Or2y1e (olfactory receptor family 2 subfamily Y member 1E),SID152319161,no change with or without drug,-1.8,-1.85,-0.56,0.78,inactive
Ccs (copper chaperone for superoxide dismutase),SID152286944,no change with or without drug,-0.45,0.17,-0.45,0.9,inactive
Rbm12 (RNA binding motif protein 12),SID152311273,high cell count with and without drug,3.04,4.22,0.34,1.21,inactive
"Acox3 (acyl-Coenzyme A oxidase 3, pristanoyl)",SID152316717,no change with or without drug,1.01,1.18,0.34,1.03,inactive
Usp29 (ubiquitin specific peptidase 29),SID152262363,no change with or without drug,-1.57,-0.84,-1.01,0.8,inactive
Hrc (histidine rich calcium binding protein),SID152300480,no change with or without drug,1.12,-0.84,2.02,1.04,inactive
